From article PMC9191731
No constants are given. Whether binding was seen depends on the method and setting. Binding seen in cells or lysates may run through a third protein. For part of these data: Sequences can lack the tags named with a protein.

Experiments:
[1] = biological target: T1, HA-ΔRING-TRIM41 (mouse (endogenous in testis)) (UniProt Q5NCC3); assay: co-IP; anti-TRIM41 antibody on Protein G magnetic beads; WT or Trim41ΔRING/ΔRING testis lysate in NP40 lysis buffer (50 mM Tris-HCl pH 7.5, 150 mM NaCl, 0.5% NP-40, 10% glycerol); 1 h at 4°C; SYCP3 immunoblot of the eluate
T1 sequence: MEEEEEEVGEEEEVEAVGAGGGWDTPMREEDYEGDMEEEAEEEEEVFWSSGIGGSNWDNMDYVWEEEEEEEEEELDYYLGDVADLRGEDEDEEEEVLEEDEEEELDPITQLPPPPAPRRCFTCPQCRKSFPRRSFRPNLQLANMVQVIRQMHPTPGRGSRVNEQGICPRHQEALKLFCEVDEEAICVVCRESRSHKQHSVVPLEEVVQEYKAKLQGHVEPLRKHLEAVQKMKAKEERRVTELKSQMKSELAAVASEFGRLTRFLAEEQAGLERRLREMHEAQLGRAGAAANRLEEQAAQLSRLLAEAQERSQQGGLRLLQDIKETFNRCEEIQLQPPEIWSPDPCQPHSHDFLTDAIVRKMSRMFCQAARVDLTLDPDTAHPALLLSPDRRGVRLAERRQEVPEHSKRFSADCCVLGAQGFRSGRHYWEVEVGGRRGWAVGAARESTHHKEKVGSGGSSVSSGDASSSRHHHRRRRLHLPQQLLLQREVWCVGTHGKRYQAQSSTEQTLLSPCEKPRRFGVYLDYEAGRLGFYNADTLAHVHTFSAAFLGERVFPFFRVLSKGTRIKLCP

[2] = biological target: T2, tripartite motif-containing 41 (TRIM41) (mouse (endogenous in testis)) (UniProt Q5NCC3); assay: as above
T2 sequence: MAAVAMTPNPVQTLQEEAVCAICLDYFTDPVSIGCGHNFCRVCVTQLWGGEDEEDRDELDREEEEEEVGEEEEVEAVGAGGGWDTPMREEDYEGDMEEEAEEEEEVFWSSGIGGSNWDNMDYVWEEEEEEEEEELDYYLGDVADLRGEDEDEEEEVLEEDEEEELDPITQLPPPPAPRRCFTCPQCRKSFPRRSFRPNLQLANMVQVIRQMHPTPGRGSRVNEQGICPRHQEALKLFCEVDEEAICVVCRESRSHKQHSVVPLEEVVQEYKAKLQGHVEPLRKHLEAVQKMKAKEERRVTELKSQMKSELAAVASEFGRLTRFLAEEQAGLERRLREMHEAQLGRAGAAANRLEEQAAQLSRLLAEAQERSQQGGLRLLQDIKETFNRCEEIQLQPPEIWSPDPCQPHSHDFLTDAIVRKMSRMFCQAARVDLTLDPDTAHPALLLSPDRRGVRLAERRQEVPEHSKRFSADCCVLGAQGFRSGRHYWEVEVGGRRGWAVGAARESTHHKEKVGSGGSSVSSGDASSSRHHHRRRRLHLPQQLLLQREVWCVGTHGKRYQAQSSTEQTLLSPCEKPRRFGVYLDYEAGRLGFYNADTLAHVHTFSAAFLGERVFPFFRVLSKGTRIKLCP

[3] = biological target: T1, HA-ΔRING-TRIM41 (mouse (endogenous in testis)); assay: co-IP; anti-HA antibody on Protein G magnetic beads; Trim41ΔRING/ΔRING testis lysate in NP40 lysis buffer (50 mM Tris-HCl pH 7.5, 150 mM NaCl, 0.5% NP-40, 10% glycerol); 1 h at 4°C; SYCP3 immunoblot of the eluate

Measured: binding

B1: synaptonemal complex protein 3 (SYCP3) (protein, UniProt P70281 1-254)
chain: MLRGCGDSDSSPEPLSKHLKMVPGGRKHSGKSGKPPLVDQPKKAFDFEKDDKDLSGSEEDVADEKAPVIDKHGKKRSAGIIEDVGGEVQNMLEKFGADINKALLAKRKRIEMYTKASFKASNQKIEQIWKTQQEEIQKLNNEYSQQFMNVLQQWELDIQKFEEQGEKLSNLFRQQQKIFQQSRIVQSQRMFAMKQIHEQFIKSLEDVEKNNDNLFTGTQSELKKEMAMLQKKVMMETQQQEMANVRKSLQSMLF
no binding: [1] | [2] | [3]
